According to PMC11272598, “RG7774 (Vicasinabin), an orally bioavailable cannabinoid receptor 2 (CB2R) agonist, decreases retinal vascular permeability, leukocyte adhesion, and ocular inflammation in animal models” (Frontiers in Pharmacology, 2024):

System: STZ-induced diabetes retinal vascular permeability
Assay: Rats with STZ-induced type 1 diabetes (fluorophotometry)
Assay type: in vivo, Long Evans rats
Details: STZ diabetic rats, 10 mg/kg daily oral gavage 5 weeks, 6 weeks after STZ
Description: Twenty-six male Long Evans rats (outbred) (Charles River Laboratories, Sulzfeld, Germany) aged 7 weeks and weighing 250–270 g at the beginning of the study were housed in individually ventilated cages with a maximum density of n = 2 rats per cage with the same sex and monitored daily. Bedding for diabetic animals was changed daily. The room was kept at 20°C–24°C with 50%–60% humidity and a 12/12 h light-dark cycle. Rats received a standard diet and water ad libidum, in addition to soaked food or soft diet. For animal welfare and for dosing purposes, animals were weighed every other day. Rats were sacrificed if weight loss was greater than 20% of the original weight, or more than 20% of body gain within 1 week.
Animals were fasted overnight and injected the following morning with IP 60 mg/kg (60 mg/mL at 1 mL/kg) STZ as reported previously ([Kim et al., 2007]; [Furman, 2015]) in 0.05 M sodium citrate buffer (pH 4.5). […]
To quantify fluorotron measurements, raw data were generated, exported as .txt files, and plotted using Microsoft Excel. The average AUC was calculated for 5 steps in the region of the scans corresponding to the vitreous peak. […] All data are expressed as mean ± SEM ng/mL ratios of vitreous:plasma fluorescein. Fluorophotometry data were analyzed using 2-way ANOVA followed by Newman–Keuls multiple comparisons test. […]

With Cn1nnnc1Cn1nnc2c(N3CC[C@H](O)C3)nc(C(C)(C)C)nc21 [RG7774, (S)-1-(5-tert-butyl-3-[(1-methyl-1H-tetrazol-5-yl)methyl]-3H-[1,2,3]triazolo[4,5-d]pyrimidin-7-yl)pyrrolidin-3-ol] the body weight was 359.3 g.
